Laboratory results published in the supplement of paper PMC12067093, “Discovery and optimisation of a covalent ligand for TRIM25 and its application to targeted protein ubiquitination” (Chemical Science, 2025).
The list shows a part of the results.

The chains behind the UniProt entries cited, without tags or fusion partners. Where a name states a change or a piece, a line headed by the entry shows the natural chain unless it says otherwise.
UniProt Q9NXH9: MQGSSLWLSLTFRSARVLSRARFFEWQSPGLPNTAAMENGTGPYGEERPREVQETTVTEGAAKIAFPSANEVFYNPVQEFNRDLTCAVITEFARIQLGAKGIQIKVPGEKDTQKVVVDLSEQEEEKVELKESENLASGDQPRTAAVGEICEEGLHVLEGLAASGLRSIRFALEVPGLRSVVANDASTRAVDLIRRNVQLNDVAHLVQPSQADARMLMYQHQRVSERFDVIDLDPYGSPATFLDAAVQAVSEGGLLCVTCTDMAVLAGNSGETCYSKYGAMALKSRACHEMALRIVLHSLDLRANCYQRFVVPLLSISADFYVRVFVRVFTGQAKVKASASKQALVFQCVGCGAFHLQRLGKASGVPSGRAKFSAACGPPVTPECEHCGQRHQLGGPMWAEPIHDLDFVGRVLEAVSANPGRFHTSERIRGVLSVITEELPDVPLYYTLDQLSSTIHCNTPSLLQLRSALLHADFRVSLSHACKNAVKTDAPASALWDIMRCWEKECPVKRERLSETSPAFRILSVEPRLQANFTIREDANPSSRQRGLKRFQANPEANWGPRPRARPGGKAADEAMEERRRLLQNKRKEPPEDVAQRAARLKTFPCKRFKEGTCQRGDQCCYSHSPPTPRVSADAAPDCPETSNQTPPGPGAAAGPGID
UniProt Q96RT8, whole entry: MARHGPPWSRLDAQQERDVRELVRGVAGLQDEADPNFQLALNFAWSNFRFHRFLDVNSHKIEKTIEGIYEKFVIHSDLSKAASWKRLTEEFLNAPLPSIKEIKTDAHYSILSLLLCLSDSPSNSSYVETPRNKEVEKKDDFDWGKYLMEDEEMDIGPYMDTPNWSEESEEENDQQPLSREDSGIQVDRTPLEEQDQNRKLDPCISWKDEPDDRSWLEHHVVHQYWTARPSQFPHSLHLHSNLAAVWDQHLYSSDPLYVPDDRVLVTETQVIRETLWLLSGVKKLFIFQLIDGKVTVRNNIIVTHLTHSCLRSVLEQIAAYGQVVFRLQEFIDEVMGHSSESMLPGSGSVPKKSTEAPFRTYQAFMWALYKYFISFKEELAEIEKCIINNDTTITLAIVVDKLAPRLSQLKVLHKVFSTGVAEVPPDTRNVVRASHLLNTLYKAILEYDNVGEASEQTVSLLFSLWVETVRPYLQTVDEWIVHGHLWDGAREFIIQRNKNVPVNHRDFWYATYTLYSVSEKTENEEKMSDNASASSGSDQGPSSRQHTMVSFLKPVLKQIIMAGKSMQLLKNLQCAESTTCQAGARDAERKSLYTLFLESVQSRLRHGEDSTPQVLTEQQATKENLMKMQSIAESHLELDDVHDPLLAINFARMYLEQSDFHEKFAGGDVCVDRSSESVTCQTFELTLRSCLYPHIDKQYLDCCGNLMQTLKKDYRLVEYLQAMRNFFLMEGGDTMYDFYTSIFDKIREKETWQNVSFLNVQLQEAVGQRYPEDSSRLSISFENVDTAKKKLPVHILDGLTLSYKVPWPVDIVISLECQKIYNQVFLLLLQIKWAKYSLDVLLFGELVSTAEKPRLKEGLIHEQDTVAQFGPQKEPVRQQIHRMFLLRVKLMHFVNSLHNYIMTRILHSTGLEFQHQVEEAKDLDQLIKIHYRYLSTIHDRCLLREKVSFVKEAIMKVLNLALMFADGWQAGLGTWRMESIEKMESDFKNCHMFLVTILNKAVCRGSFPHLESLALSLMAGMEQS
UniProt P10155: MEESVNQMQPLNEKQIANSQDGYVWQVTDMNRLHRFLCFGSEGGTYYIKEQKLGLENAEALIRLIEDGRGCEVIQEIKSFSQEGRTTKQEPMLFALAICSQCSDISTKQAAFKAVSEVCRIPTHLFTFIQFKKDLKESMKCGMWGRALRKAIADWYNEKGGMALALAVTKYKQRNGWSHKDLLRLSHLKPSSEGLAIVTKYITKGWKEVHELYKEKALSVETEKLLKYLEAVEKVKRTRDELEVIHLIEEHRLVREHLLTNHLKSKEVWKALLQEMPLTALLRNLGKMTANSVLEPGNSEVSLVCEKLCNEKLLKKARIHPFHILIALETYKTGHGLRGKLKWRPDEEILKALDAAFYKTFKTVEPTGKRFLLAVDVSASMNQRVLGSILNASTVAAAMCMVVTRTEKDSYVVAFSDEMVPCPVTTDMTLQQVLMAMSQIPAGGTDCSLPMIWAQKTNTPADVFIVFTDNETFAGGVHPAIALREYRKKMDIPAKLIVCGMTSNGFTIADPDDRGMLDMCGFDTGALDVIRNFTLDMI
UniProt Q9ULT0: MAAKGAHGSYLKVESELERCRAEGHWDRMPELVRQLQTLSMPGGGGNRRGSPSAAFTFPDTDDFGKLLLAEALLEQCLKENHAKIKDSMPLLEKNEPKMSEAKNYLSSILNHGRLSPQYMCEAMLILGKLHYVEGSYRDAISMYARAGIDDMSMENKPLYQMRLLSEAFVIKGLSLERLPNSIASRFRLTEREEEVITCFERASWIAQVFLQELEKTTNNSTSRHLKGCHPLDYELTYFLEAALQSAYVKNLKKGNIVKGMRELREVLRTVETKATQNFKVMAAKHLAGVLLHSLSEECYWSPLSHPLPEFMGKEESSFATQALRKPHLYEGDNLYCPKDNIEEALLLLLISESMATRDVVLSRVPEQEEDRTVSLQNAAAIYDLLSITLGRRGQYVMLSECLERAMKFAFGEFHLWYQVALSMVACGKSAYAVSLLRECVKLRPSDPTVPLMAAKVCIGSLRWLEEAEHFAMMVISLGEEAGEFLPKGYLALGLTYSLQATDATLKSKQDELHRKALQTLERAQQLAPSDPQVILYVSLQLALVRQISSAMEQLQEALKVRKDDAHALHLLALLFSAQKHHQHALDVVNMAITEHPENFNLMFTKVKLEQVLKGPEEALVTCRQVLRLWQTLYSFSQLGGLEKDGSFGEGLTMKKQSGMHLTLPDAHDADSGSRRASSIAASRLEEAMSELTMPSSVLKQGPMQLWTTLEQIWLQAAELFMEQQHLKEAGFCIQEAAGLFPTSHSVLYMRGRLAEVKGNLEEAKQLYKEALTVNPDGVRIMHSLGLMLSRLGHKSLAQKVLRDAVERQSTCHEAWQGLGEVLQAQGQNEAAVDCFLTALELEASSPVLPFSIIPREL
UniProt Q96QT4: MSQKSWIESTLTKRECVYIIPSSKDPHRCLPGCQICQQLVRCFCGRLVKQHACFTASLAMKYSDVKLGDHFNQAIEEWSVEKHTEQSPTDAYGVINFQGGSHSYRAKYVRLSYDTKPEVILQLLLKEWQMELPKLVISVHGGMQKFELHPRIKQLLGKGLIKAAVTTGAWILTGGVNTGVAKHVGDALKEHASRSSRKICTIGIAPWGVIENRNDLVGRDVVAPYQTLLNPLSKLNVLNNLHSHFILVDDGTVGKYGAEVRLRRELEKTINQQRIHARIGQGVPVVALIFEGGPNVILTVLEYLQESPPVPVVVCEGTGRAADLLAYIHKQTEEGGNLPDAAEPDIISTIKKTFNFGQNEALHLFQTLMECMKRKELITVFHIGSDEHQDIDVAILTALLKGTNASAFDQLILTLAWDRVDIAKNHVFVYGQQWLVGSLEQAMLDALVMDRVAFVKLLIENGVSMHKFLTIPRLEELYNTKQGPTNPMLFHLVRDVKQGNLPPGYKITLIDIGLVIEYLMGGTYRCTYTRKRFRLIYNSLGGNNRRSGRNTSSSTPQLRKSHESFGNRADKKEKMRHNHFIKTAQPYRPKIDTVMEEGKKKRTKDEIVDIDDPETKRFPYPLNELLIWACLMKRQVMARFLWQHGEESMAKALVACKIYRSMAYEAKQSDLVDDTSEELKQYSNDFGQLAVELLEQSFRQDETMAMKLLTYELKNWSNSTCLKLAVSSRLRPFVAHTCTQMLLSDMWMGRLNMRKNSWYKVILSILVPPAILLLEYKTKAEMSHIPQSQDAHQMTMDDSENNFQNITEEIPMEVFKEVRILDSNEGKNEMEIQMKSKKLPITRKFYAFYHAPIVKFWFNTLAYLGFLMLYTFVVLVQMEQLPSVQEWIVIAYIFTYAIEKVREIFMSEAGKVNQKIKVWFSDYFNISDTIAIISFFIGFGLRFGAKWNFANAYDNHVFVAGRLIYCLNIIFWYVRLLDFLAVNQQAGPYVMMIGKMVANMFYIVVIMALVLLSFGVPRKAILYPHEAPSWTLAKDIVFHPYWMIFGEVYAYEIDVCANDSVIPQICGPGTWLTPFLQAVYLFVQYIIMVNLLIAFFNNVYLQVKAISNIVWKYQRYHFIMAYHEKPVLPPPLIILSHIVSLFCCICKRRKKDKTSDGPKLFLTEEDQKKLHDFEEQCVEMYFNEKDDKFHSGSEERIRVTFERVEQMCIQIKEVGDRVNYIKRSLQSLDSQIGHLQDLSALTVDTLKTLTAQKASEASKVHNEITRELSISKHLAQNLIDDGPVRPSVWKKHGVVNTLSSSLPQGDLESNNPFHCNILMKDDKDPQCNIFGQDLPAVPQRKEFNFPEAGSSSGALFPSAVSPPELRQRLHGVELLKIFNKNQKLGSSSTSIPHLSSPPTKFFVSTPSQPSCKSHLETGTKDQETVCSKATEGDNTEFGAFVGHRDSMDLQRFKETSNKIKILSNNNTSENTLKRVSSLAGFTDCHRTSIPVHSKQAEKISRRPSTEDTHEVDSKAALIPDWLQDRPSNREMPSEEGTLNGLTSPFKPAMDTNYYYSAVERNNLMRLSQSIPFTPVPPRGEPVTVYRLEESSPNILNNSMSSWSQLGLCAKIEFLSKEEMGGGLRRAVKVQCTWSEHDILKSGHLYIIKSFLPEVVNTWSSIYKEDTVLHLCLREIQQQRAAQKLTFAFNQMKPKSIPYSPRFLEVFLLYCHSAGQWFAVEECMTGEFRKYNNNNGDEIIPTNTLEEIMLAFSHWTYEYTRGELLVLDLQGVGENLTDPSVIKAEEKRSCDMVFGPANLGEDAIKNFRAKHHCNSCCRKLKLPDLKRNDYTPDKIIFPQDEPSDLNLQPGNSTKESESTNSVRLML
UniProt Q14166: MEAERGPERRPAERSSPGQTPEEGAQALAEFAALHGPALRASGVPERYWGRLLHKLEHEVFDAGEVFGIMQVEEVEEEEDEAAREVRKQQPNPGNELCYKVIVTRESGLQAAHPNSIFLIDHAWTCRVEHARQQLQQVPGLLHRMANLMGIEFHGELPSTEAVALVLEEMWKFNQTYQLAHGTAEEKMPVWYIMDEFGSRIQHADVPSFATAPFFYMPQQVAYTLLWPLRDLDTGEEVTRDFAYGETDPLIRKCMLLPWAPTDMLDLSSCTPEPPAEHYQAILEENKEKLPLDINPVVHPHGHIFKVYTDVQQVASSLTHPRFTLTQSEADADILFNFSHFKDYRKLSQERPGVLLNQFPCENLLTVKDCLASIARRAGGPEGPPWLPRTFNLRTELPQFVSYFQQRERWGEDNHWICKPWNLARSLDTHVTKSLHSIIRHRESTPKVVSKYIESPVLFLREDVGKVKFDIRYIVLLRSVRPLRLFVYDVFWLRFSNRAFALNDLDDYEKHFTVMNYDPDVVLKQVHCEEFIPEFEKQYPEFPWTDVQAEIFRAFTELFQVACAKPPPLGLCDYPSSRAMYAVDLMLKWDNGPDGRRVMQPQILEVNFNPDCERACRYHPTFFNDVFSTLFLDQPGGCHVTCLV
UniProt P33981: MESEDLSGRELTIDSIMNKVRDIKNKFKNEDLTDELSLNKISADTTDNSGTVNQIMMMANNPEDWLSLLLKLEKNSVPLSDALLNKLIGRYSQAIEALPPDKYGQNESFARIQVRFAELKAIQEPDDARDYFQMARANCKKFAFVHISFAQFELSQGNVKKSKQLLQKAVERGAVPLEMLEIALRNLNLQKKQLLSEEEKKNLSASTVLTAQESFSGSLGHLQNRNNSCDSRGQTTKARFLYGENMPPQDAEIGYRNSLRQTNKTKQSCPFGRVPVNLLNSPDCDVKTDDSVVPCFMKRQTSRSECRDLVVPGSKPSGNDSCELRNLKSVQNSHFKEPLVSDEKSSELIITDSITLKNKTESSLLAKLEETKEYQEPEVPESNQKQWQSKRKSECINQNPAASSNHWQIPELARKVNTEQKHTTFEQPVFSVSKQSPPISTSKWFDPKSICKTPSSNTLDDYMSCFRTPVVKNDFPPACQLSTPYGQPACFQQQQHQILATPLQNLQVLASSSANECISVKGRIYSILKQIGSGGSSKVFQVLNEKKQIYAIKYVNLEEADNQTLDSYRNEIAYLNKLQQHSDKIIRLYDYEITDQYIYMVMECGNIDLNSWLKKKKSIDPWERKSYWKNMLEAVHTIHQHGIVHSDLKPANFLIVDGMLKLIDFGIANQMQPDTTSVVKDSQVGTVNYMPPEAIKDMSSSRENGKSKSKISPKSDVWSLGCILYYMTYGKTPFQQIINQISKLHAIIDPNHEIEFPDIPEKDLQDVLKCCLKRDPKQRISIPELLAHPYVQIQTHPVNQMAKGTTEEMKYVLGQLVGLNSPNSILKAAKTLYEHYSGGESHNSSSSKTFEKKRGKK

Compound: CC1Cc2ccccc2N1C(=O)C1CCCN(C1)C(=O)CCl (mixture of isomers) [TRIM25 ligand 11 (diastereomer mixture)]
Assay: probe-labelled cysteine peptide fold change vs DMSO (competition) (log2 fold change); higher = less target engagement (more negative = stronger competition)
Conditions: THP-1, incubation time: 4 h
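Also: competitive chemoproteomic profiling in live THP-1 cells with an iodoacetamide desthiobiotin (IA-DTB) probe, comparing probe-labelled peptide intensities in compound-treated cells against DMSO-treated controls.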

Target | probe-labelled cysteine peptide fold change (10 µM) | probe-labelled cysteine peptide fold change (50 µM)
TRMT2A_Q8IZ69_191_QLECEQVLQK (UniProt Q8IZ69) | -0.0804 | 0.0668
TRMT1_Q9NXH9_621_GDQCCYSHSPPTPR (UniProt Q9NXH9) | -0.202 | -0.373
TUBGCP5_Q96RT8_670_FAGGDVCVDR (UniProt Q96RT8) | 0.0805 | -0.0117
TRMT1_Q9NXH9_86_DLTCAVITEFAR (UniProt Q9NXH9) | -0.0295 | -0.12
TRRAP_Q9Y4A5_3758_CFAQPNFK (UniProt Q9Y4A5) | 0.0512 | 0.0922
TTC4_O95801_174_HFAEAVNWCDEGLQIDAK (UniProt O95801) | -0.0931 | 0.216
TSFM_P43897_64_TGYSFVNCK (UniProt P43897) | -0.111 | 0.0251
TROVE2_P10155_400_VLGSILNASTVAAAMCMVVTR (UniProt P10155) | -0.413 | 0.243
TTC7A_Q9ULT0_337_KPHLYEGDNLYCPK (UniProt Q9ULT0) | 0.11 | 0.0734
TRPM7_Q96QT4_53_QHACFTASLAMK (UniProt Q96QT4) | 0.107 | 0.103
TTF2_Q9UNY4_50_ATDIPVSHCLLHEDFVVELQGLLLPQDKK (UniProt Q9UNY4) | -0.0432 | 0.0515
TTLL12_Q14166_612_RVMQPQILEVNFNPDCER (UniProt Q14166) | -0.104 | -0.0281
TRPV2_Q9Y5S1_218_GQGTCFYFGELPLSLAACTK (UniProt Q9Y5S1) | -0.274 | -0.112
TTK_P33981_322_PSGNDSCELR (UniProt P33981) | -0.16 | -0.123

Reprinted from the results shown for reference:
Target | probe-labelled cysteine peptide fold change (10 µM) | probe-labelled cysteine peptide fold change (50 µM)
TTC7A_Q9ULT0_337_KPHLYEGDNLYCPK (UniProt Q9ULT0) | 0.11 | 0.0734
TRPM7_Q96QT4_53_QHACFTASLAMK (UniProt Q96QT4) | 0.107 | 0.103
